# Measured values taken from PubChem BioAssay AID2653 (National Center for Advancing Translational Sciences (NCATS), 2010).
# Inconclusive means that the source gave no clear call. Such entries were picked first, then a sample of the others. Potencies beside an inconclusive call are fits to weak or partial responses and may not hold up. The source made the active and inactive calls. Calls follow the shape of the dose curve; as a rule, active = well fitted curve in the direction sought with a large enough effect; inconclusive = small, poorly fitted or top-dose-only effect, or another doubt; inactive = no such curve, though single readings can be large or run the other way.
# Assay: Secondary Assay for Activators of Human Pyruvate Kinase M2 isoform - Cell Titer Glo Cytotoxicity for Probe SAR
# Details: HeLa viability, CellTiter-Glo ATP luminescence, 24 h; series mostly up to 58.2 µM
# Method: NIH Chemical Genomics Center [NCGC]
# Matthew G. Vander Heiden, M.D., Ph.D. [Harvard Medical School, 77 Avenue Louis Pasteur, Boston, MA 02115]
# We have identified a series of activators of the M2 isoform of human pyruvate kinase. The assay described here examines the cytotoxicity of these compounds by measuring the total ATP content of Hela cells after 24 hrs of exposure to compound.
# 500 Hela cells/ 4ul in media (DMEM with high glucose, 10% FBS, 1x Pen Strep, 1x NEAA) were dispensed into a white solid 1536-microwell plate with a Thermo Multidrop. The plates were incubated at 37 degrees Celsius for 24 hours. The cells were then treated with compounds using the Kalypsys pin tool, delivering 23 nl of test compounds and the control doxorubicin. The plates were then incubated for an additional 24 hours at 37 degrees C after which 4 ul of Promega Cell-Titer Glo was dispensed using the Thermo Multidrop. The plates were incubated at room temperature for 10 min before reading luminescence on the Perkin Elmer ViewLux with images collected with 2x binning and a 5 sec exposure time.
row,Structure (SMILES),Potency
1,Cc1ccc(NS(=O)(=O)c2ccc3c(c2)C(Cl)(Cl)C(=O)N3)cc1C,"inconclusive: 29.1 µM [falling, partial curve]"
2,Cc1ccc(NS(=O)(=O)c2ccc(N3CCCC3=O)cc2)cc1C,inactive
3,O=C1CCc2cc(S(=O)(=O)Nc3cc(F)cc(Cl)c3)c(F)cc2N1,inactive
4,Cc1ccc(NS(=O)(=O)c2cc3c(cc2N(C)C)CCC(=O)N3)cc1C,inactive
5,Cc1ccc(-c2nc3ccccn3c2Nc2ccc(F)cc2)o1,"inconclusive: 20.6 µM [falling, partial curve, poor fit]"
6,O=C1c2ccccc2C(=O)N1c1ccccn1,"inconclusive: 25.9 µM [falling, partial curve, poor fit]"
7,O=C1c2ccccc2C(=O)N1c1cccnc1,inactive
8,Cc1ccc(NS(=O)(=O)c2ccc3c(ccn3C)c2)cc1C,inactive
9,O=C1CCc2cc(S(=O)(=O)Nc3cccc4ccccc34)ccc2N1,"inconclusive: 29.1 µM [falling, partial curve]"
10,COc1cccc(Cn2ncc3c4sc(SC)cc4n(C)c3c2=O)c1,"inconclusive: 20.6 µM [falling, partial curve, poor fit]"
11,Cc1cc2c(s1)c1cnn(Cc3ccccc3F)c(=O)c1n2C,"inconclusive: 41.1 µM [falling, partial curve, poor fit]"
